From article PMC7819943, “Rice protein-binding microarrays: a tool to detect cis-acting elements near promoter regions in rice”
Some of the results follow.

These sequences were tested against T1, OsSMF1 (Oryza sativa, UniProt Q6ZLB0 1-436) (assay: protein-binding microarray (RPBM); PBS, 2% BSA, 51.3 ng/ul salmon testes DNA, 50 uM zinc acetate, 200 nM TF, 25 C, 1 h; high values mean tight binding). Conditions: protein: recombinant; tags: N-terminal polyhistidine and DsRed monomer fusion (pET32a); chain copies: 2; label: CyDye5-dUTP incorporated in the synthesized complementary strand; 3' TTTTT single-stranded linker to array surface; dsDNA, one strand shown.
T1 sequence: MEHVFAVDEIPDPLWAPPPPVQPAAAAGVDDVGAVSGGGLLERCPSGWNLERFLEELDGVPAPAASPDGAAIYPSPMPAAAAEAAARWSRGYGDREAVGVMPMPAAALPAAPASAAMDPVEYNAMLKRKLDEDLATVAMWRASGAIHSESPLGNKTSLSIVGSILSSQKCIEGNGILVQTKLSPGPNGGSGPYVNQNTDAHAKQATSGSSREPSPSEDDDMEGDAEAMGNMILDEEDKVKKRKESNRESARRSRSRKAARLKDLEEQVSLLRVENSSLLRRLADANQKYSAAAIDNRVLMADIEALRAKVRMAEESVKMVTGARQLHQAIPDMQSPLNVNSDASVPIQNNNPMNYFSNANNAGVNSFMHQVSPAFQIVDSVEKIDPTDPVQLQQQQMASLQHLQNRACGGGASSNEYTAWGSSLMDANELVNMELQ
Method in brief: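 Polyhistidine-tagged DsRed fusions of transcription factors, joined at the N-terminus, were expressed in E. coli BL21-CodonPlus and isolated on Ni–NTA. They were incubated at 200 nM for 1 h at 25 °C on a custom Agilent array, double-stranded and BSA-blocked, in PBS with 2% BSA, salmon testes DNA and 50 µM zinc acetate. The binding signal is per-feature fluorescence intensity (arbitrary units) read on an Axon 4000B scanner after washing.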

| Sequence | binding signal |
| --- | --- |
| TCGCCGACCCTGCCACCGCAATGACTCCCCTGCCGCCGCCCGGAGTCACCTAGTGCAG | 4070 fluorescence intensity (a.u.) |
| AGCAAATCTTAAGATTGACGAAGTCAGCACGGATGTTTCGCGGAGTCACCTAGTGCAG | 3250 fluorescence intensity (a.u.) |
| TTAACTTTGACGTGTTGCAACACCATCATGGGCTAACGTTCGGAGTCACCTAGTGCAG | 5020 fluorescence intensity (a.u.) |
| AATTGCCCACACTCCACGCAAGCCGGCCCAACTCCTTGGACGGAGTCACCTAGTGCAG | 4030 fluorescence intensity (a.u.) |
| CGCCGTCGCCCATTTCGGCATGCGTTATCACCGCCGCCACCGGAGTCACCTAGTGCAG | 3450 fluorescence intensity (a.u.) |
| GCCCACAAACACAAGCGCTGTTTTCCTCTCCTACCCTTTTCGGAGTCACCTAGTGCAG | 3310 fluorescence intensity (a.u.) |
| GGGACGTGTGATGAACTTACTCCATATAAATAAACATACGCGGAGTCACCTAGTGCAG | 4600 fluorescence intensity (a.u.) |
| GATTGTTCTTCTCGCTTCTGAATTGTTGTGACCTGTAACTCGGAGTCACCTAGTGCAG | 3150 fluorescence intensity (a.u.) |
| CAGTGACCGTGACGTGATACATGGAGATAACGCCGCCTGGCGGAGTCACCTAGTGCAG | 6620 fluorescence intensity (a.u.) |
| TCGTTTGGAGGACATTGAGGGAGAAAGCATCTCATTTTCCCGGAGTCACCTAGTGCAG | 8540 fluorescence intensity (a.u.) |
| ATATCGAGCTGAGTTCTCCACGTCGGCCTGACTGCGACTGCGGAGTCACCTAGTGCAG | 9540 fluorescence intensity (a.u.) |
| CGCCGTCGTATGCGTGGCTCCCCTCCCCGGCCTCTCGTCTCGGAGTCACCTAGTGCAG | 4790 fluorescence intensity (a.u.) |
| CAACTCATCCATCCCCACCTTGTCCACGTCGTCGCCTATACGGAGTCACCTAGTGCAG | 10600 fluorescence intensity (a.u.) |
| ATCACAAGATTTTGTAGTAGATGCCAAGTGGTGACTGACACGGAGTCACCTAGTGCAG | 4360 fluorescence intensity (a.u.) |
| AAGAAACAAACAGACACGTAAGGAGGAGAAATTTCCCCTCCGGAGTCACCTAGTGCAG | 5190 fluorescence intensity (a.u.) |
| GGCTGAGAAATAGTAACTGGGCCAACATGCGTGTTGACTACGGAGTCACCTAGTGCAG | 3440 fluorescence intensity (a.u.) |
| TACTTTCAACTTTTACCGTGTAAAATGACTCATTCAACTGCGGAGTCACCTAGTGCAG | 6560 fluorescence intensity (a.u.) |
| GCCGCGCGCCGCATCACATACACGGGCCACGGCCTCACGGCGGAGTCACCTAGTGCAG | 38900 fluorescence intensity (a.u.) |
| AGAGAGAGAGAGGAAAAGGGAGAAGCCAAGGAGTTGTTGGCGGAGTCACCTAGTGCAG | 3370 fluorescence intensity (a.u.) |
| AGCGTGTAAAGTTTTGGCGTGTCACATCGGATGTACGGACCGGAGTCACCTAGTGCAG | 3830 fluorescence intensity (a.u.) |
| CCAAGTTCGGCTGGTCGCCACGCCACCCATCTCCATCTTCCGGAGTCACCTAGTGCAG | 4140 fluorescence intensity (a.u.) |

| Sequence | binding signal |
| --- | --- |
| CTAGACGCCGGCGACGACGAGGGTGGTTGGGTTGTGGATACGGAGTCACCTAGTGCAG | 3740 fluorescence intensity (a.u.) |
| GTGTGTGACGCGTGTCACCACACGTTCTCTATCGCCCCTCCGGAGTCACCTAGTGCAG | 8870 fluorescence intensity (a.u.) |
| GAGTCTGACGAAGCCGTTCGCCAACAGCAGATGCCTATTGCGGAGTCACCTAGTGCAG | 3280 fluorescence intensity (a.u.) |
| TTCACTCGAGGAGGCGGCGGAGGCAGTCCACGTCAGCAACCGGAGTCACCTAGTGCAG | 39000 fluorescence intensity (a.u.) |
| GATTGAGATGACTTTCTTGTGATGACCCGCTAATTTCAGACGGAGTCACCTAGTGCAG | 3300 fluorescence intensity (a.u.) |
| TAGCAAGAGACCTTGTTGAGCATGTCATCAATGTCAAGTGCGGAGTCACCTAGTGCAG | 4150 fluorescence intensity (a.u.) |
| ATGCCCGCACCGCACTATCCCCACGTGACGACGACGATACCGGAGTCACCTAGTGCAG | 3560 fluorescence intensity (a.u.) |
| ATACTAGCAATCTCATTTATCCCGCCACGTAGGTAAAATTCGGAGTCACCTAGTGCAG | 7760 fluorescence intensity (a.u.) |
| CGTCATGGGAGTCGGGGTTGGGTCGCCACCGCTCTAGATCCGGAGTCACCTAGTGCAG | 3440 fluorescence intensity (a.u.) |
| TCTCGGCGACAGACGTGCGCCGCACGATCTAAGTCAGTGGCGGAGTCACCTAGTGCAG | 3500 fluorescence intensity (a.u.) |
| TCCCGCCAAATCACCGATCCGCGCCTCACGCCACGTCAACCGGAGTCACCTAGTGCAG | 16000 fluorescence intensity (a.u.) |
| AAGTAAACTACATCCCTGTGGCCCTTTGTGGCTGCATCATCGGAGTCACCTAGTGCAG | 27800 fluorescence intensity (a.u.) |
| GTTCGATCTGAGTCTGAATCATGAGCTTATGCCTGATTGACGGAGTCACCTAGTGCAG | 4290 fluorescence intensity (a.u.) |
| ACCACCGCCGCCGCCGCCGCCGCGTATGGGCTCGCCGGCGCGGAGTCACCTAGTGCAG | 3210 fluorescence intensity (a.u.) |
| ACTTAACACCCCATCTTCTACCCACCTCTCTCACTCCAGCCGGAGTCACCTAGTGCAG | 15500 fluorescence intensity (a.u.) |
| TTGTTTCTGTTTCAGGTATGAGGTCATCATTCTCCAGTATCGGAGTCACCTAGTGCAG | 5810 fluorescence intensity (a.u.) |
| TGCGGATAGACTTCCACAACTGCCATGTCACCGCGATGTTCGGAGTCACCTAGTGCAG | 11200 fluorescence intensity (a.u.) |
| ATAACTCGGGTCGGACTCGGACCTCAGGCCCACGTATTCCCGGAGTCACCTAGTGCAG | 3220 fluorescence intensity (a.u.) |
| CTCCCGGAGCTCGGCCGCCTCTTCACCTCCGACACCCGCGCGGAGTCACCTAGTGCAG | 3460 fluorescence intensity (a.u.) |
| AAGGTGTGCCCCAACCTACTTTTACATCCACATTGTAACACGGAGTCACCTAGTGCAG | 6820 fluorescence intensity (a.u.) |
| TGCATACGTGTAGCTTCAAGTTCACTGCACATCACCTTCTCGGAGTCACCTAGTGCAG | 4430 fluorescence intensity (a.u.) |

Taken from above:
CCAAGTTCGGCTGGTCGCCACGCCACCCATCTCCATCTTCCGGAGTCACCTAGTGCAG | binding signal: 4140 fluorescence intensity (a.u.)
GAGTCTGACGAAGCCGTTCGCCAACAGCAGATGCCTATTGCGGAGTCACCTAGTGCAG | binding signal: 3280 fluorescence intensity (a.u.)
